PMC8806762
Results are given in words; binding and its absence hold for the method and conditions named. In cells and extracts the contact can be indirect. Some entries that bind do so weakly or less than the wild type.

By UniProt entry, the sequences of proteins in these tests, tags left out. Residues count along the entry.
UniProt Q15058: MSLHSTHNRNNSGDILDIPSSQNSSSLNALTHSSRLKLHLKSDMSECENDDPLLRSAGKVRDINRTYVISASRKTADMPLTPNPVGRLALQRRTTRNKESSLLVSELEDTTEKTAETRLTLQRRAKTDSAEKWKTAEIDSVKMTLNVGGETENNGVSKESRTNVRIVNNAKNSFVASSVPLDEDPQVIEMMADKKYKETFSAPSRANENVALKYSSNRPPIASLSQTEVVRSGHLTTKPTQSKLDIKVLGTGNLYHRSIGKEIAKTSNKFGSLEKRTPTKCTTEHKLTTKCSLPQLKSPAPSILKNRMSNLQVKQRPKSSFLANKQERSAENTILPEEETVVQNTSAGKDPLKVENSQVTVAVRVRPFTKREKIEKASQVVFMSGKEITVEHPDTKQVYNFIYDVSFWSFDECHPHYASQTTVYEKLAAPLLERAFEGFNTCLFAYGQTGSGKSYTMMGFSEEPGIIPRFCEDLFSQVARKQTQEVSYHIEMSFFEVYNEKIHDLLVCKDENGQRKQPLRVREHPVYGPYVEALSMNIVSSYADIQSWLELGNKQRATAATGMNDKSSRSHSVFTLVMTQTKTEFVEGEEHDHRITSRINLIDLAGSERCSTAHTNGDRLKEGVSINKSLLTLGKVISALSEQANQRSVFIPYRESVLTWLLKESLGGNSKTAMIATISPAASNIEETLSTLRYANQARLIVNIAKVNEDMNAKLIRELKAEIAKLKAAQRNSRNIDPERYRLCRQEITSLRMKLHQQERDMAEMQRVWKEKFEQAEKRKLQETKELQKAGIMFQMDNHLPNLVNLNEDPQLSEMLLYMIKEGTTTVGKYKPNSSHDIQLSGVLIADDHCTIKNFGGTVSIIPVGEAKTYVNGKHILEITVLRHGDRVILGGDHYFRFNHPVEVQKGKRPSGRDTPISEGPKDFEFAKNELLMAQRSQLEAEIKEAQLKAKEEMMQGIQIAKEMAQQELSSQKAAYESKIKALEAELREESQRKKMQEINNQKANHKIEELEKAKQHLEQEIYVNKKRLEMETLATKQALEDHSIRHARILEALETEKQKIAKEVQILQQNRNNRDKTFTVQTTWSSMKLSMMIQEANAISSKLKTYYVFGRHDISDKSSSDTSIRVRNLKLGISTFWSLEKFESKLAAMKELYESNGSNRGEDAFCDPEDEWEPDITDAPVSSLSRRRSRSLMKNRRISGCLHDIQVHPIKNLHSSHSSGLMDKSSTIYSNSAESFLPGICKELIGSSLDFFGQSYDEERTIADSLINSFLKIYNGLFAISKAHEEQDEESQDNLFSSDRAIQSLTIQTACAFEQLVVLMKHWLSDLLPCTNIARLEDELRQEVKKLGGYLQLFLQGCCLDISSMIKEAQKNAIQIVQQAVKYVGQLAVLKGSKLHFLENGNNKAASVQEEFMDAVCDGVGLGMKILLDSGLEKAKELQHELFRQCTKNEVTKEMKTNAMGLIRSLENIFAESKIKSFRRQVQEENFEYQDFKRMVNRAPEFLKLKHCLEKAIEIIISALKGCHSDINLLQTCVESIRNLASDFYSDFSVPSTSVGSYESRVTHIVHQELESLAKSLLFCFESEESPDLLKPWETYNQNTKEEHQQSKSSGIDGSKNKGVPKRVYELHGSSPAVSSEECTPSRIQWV
UniProt O95202, residues 116-739: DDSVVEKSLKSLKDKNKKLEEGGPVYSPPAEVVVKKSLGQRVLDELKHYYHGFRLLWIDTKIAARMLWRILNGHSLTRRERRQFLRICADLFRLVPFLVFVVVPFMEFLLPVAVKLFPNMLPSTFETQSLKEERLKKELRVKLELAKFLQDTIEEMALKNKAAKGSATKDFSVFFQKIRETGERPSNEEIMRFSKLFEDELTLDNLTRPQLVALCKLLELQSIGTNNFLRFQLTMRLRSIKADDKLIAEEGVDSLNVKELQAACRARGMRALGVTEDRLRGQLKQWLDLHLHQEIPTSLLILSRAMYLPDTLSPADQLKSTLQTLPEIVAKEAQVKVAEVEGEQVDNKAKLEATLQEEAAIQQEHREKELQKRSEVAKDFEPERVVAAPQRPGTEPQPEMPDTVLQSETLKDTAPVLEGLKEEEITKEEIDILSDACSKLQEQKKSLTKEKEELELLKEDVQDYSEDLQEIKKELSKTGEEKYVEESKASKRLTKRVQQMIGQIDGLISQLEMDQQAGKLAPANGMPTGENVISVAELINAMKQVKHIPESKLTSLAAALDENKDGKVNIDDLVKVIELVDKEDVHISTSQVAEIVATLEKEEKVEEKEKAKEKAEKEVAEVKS

Columns and labels:
[1] = molecular target: Kinesin family member 14 (human (endogenous in TE11)) (UniProt Q15058); assay: co-IP; endogenous proteins of ESCC cell lysate (RIPA); protein A/G agarose beads, 2 h at 4°C; IgG and LETM1 or KIF14 antibodies overnight at 4°C; washed three times with Co-IP buffer; western blot
[2] = molecular target: Leucine zipper-EF-hand-containing transmembrane protein 1 (human (endogenous in TE11)) (UniProt O95202); assay: as above

binding [1] | binding [2] | Substance
binds | – | Leucine zipper-EF-hand-containing transmembrane protein 1 (from UniProt O95202 116-739)
– | binds | Kinesin family member 14 (from UniProt Q15058 1-1648)
